Values from PubChem BioAssay AID1224826 (NIAID, 2016).
Screen: 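Knock-downs that raise or lower Tnf reporter signal after endotoxin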 (primary screen). System: RAW264.7 G9 macrophages from mouse bearing reporters for p65 (GFP) and the Tnf promoter (mCherry). Reagent: siRNA pool against mouse genes, 100 nM. Timing: 16 h of LPS stimulation, after 2 days of siRNA transfection. Challenge: bacterial lipopolysaccharide (Salmonella minnesota R595), 10 ng/ml. Measurement: 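Imaged Tnf reporter mCherry in nuclei, minus background, normalised per plate to the median and expressed as robust z-scores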. Scale: Tnf reporter robust z-score: higher = stronger Tnf promoter reporter signal after LPS. Active means: 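Called active when robust z-score is at most -1.3, matching the median of the Tlr4 knock-down control, or over 3; control wells and wells with under 50 cells never active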. Calls: active = Tnf reporter clearly lowered or raised; inactive = no clear change in Tnf reporter.
The whole screen tested about 17,000 reagents; shown is a random part of them. About 1,110 of them (6.6%) were called active. 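Active means lowered or raised reporter signal; replicate intensities are raw and not normalised per plate.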 Entries without a mark were called inactive. Reagents against one gene are numbered here. Some reagents were tested in more than one well and are listed for each. Further read-outs or replicates are left out here.

The first 3 entries as a preview:
Tnf reporter robust z-score	fewer than 50 cells in well	gene	reagent no.
1.91	enough cells in well	Dcbld2 (discoidin, CUB and LCCL domain containing 2)	1
1.67	enough cells in well	Icosl (icos ligand)	1
-0.18	enough cells in well	Dbr1 (debranching RNA lariats 1)	1

The listing, from the start:
Tnf reporter robust z-score	fewer than 50 cells in well	gene	reagent no.
1.91	enough cells in well	Dcbld2 (discoidin, CUB and LCCL domain containing 2)	1
1.67	enough cells in well	Icosl (icos ligand)	1
-0.18	enough cells in well	Dbr1 (debranching RNA lariats 1)	1
0.07	enough cells in well	Fbxo5 (F-box protein 5)	1
1.47	enough cells in well	Magea6 (MAGE family member A6)	1
-0.24	enough cells in well	Myh6 (myosin, heavy polypeptide 6, cardiac muscle, alpha)	1
2.84	enough cells in well	Or2j6 (olfactory receptor family 2 subfamily J member 6)	1
0.12	enough cells in well	Parp2 (poly (ADP-ribose) polymerase family, member 2)	1
1.53	enough cells in well	9230112E08Rik (RIKEN cDNA 9230112E08 gene)	1
0.33	enough cells in well	9230112E08Rik (RIKEN cDNA 9230112E08 gene)	1
0.01	enough cells in well	Or6p1 (olfactory receptor family 6 subfamily P member 1)	1
	fewer than 50 cells per well; well left out of calls	Aldob (aldolase B, fructose-bisphosphate)	1
-0.13	enough cells in well	Upp2 (uridine phosphorylase 2)	1
0.33	enough cells in well	Aqp2 (aquaporin 2)	1
0.37	enough cells in well	Ces1f (carboxylesterase 1F)	1
0.84	enough cells in well	Bmyc (brain expressed myelocytomatosis oncogene)	1
1.1	enough cells in well	Krtap6-5 (keratin associated protein 6-5)	1
2.99	enough cells in well	Scgb2b27 (secretoglobin, family 2B, member 27)	1
-0.05	enough cells in well	H1f7 (H1.7 linker histone)	1
0.59	enough cells in well	Cops2 (COP9 signalosome subunit 2)	1
	fewer than 50 cells per well; well left out of calls	Apcs (amyloid P component, serum)	1
1.91	enough cells in well	Ythdf3 (YTH N6-methyladenosine RNA binding protein 3)	1
	fewer than 50 cells per well; well left out of calls	Or7g25 (olfactory receptor family 7 subfamily G member 25)	1
-0.13	enough cells in well	Pou1f1 (POU domain, class 1, transcription factor 1)	1
0.2	enough cells in well	Erbb4 (erb-b2 receptor tyrosine kinase 4)	1
0.6	enough cells in well	Kif24 (kinesin family member 24)	1
-1.27	enough cells in well	Ifitm2 (interferon induced transmembrane protein 2)	1
0.27	enough cells in well	Taf10 (TATA-box binding protein associated factor 10)	1
-0.61	enough cells in well	Celsr2 (cadherin, EGF LAG seven-pass G-type receptor 2)	1
-1.19	enough cells in well	Brd4 (bromodomain containing 4)	1
	fewer than 50 cells per well; well left out of calls	Zbtb35 (zinc finger and BTB domain containing 35)	1
0.74	enough cells in well	Saa3 (serum amyloid A 3)	1
2.17	enough cells in well	Cdc42bpb (CDC42 binding protein kinase beta)	1
0.58	enough cells in well	Tm6sf2 (transmembrane 6 superfamily member 2)	1
0.72	enough cells in well	Cd68 (CD68 antigen)	1
-0.76	enough cells in well	Csnk1e (casein kinase 1, epsilon)	1
0.04	enough cells in well	Smarca1 (SNF2 related chromatin remodeling ATPase 1)	1
-1.19	enough cells in well	Skint9 (selection and upkeep of intraepithelial T cells 9)	1
	fewer than 50 cells per well; well left out of calls	Prxl2b (peroxiredoxin like 2B)	1
1.14	enough cells in well	Atg16l1 (autophagy related 16 like 1)	1
-1.2	enough cells in well	Gabrb2 (gamma-aminobutyric acid type A receptor subunit beta 2)	1
0.82	enough cells in well	Gabrb2 (gamma-aminobutyric acid type A receptor subunit beta 2)	2
-0.91	enough cells in well	Epha3 (Eph receptor A3)	1
1.69	enough cells in well	Prss46 (serine protease 46)	1
0.15	enough cells in well	Gm20555 (predicted gene, 20555)	1
1.27	enough cells in well	2310011J03Rik (RIKEN cDNA 2310011J03 gene)	1
-0.14	enough cells in well	Eml6 (echinoderm microtubule associated protein like 6)	1
-1.03	enough cells in well	Crebbp (CREB binding protein)	1
-0.59	enough cells in well	Cd83 (CD83 antigen)	1
1.07	enough cells in well	Nat8f5 (N-acetyltransferase 8 (GCN5-related) family member 5)	1
0.66	enough cells in well	Dhfr (dihydrofolate reductase)	1
0.89	enough cells in well	Dnmt3a (DNA methyltransferase 3A)	1
0.61	enough cells in well	Mdp1 (magnesium-dependent phosphatase 1)	1
0.66	enough cells in well	Ppp2r1a (protein phosphatase 2, regulatory subunit A, alpha)	1
1.94	enough cells in well	Uqcc1 (ubiquinol-cytochrome c reductase complex assembly factor 1)	1
-1.12	enough cells in well	Hpvc-ps (retired record)	1
-0.36	enough cells in well	Pcnx2 (pecanex homolog 2)	1
-0.84	enough cells in well	Pcnx2 (pecanex homolog 2)	2
-0.32	enough cells in well	H2ac18 (H2A clustered histone 18)	1
2.36	enough cells in well	H2ac6 (H2A clustered histone 6)	1
-0.72	enough cells in well	Wnt9b (WNT family member 9B)	1
	fewer than 50 cells per well; well left out of calls	Mterf4 (mitochondrial transcription termination factor 4)	1
-0.17	enough cells in well	Sh2d3c (SH2 domain containing 3C)	1
-1.26	enough cells in well	Neil3 (nei like 3 (E. coli))	1
-0.78	enough cells in well	Polg2 (polymerase (DNA directed), gamma 2, accessory subunit)	1
0.05	enough cells in well	Mef2a (myocyte enhancer factor 2A)	1
-0.06	enough cells in well	Eral1 (Era like 12S mitochondrial rRNA chaperone 1)	1
-1.18	enough cells in well	Gap43 (growth associated protein 43)	1
1.31	enough cells in well	Zfp275 (zinc finger protein 275)	1
-0.92	enough cells in well	Or5w15 (olfactory receptor family 5 subfamily W member 15)	1
-0.56	enough cells in well	Cox6a2 (cytochrome c oxidase subunit 6A2)	1
-0.77	enough cells in well	Pcbp3 (poly(rC) binding protein 3)	1
0.69	enough cells in well	Trappc5 (trafficking protein particle complex 5)	1
0.7	enough cells in well	Rad52 (RAD52 homolog, DNA repair protein)	1
-0.57	enough cells in well	Ptpn6 (protein tyrosine phosphatase, non-receptor type 6)	1
